Library screening results

By UniProt entry, the sequences of proteins in these tests, tags left out.
UniProt E9BF75, entry or part of it: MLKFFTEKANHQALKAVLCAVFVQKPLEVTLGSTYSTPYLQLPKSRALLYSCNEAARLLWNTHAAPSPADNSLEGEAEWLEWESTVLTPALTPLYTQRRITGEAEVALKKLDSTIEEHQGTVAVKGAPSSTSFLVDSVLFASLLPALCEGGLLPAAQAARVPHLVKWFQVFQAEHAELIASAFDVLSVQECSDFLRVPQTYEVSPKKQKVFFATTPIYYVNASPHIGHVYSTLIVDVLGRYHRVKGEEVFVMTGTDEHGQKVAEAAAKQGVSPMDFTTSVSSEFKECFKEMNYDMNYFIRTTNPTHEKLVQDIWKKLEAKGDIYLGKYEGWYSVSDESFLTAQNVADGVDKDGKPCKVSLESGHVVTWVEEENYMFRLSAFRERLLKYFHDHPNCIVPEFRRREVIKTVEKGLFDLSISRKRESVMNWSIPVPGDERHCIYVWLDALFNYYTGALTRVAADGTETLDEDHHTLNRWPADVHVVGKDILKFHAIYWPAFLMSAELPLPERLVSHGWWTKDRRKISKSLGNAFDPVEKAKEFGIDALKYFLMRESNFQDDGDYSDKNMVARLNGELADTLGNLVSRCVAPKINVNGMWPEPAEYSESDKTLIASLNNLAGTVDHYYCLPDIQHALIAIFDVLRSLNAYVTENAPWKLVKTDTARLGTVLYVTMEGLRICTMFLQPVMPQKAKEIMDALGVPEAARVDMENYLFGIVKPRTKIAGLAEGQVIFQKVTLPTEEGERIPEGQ

All values are in %. The controls that fix the scale are not given in the record; negative values are as filed. This is an unselected part of the compounds tested. A dash means the value is not listed here; it may have been measured.

Mtb heat-shock: 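Assay on Mycobacterium tuberculosis, filed only as a heat shock assay from Cornell; the read-out is not stated. The concentration is filed as 10 mM, unlikely as a test dose, so the dose is not known. Higher reads as stronger inhibition (inferred: compounds with an IC50 in retests scored well above the rest). Of about 69,000 compounds tested this way, about 930 (1.4%) reached 50% or more in at least one test.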
LdMetRS: 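Primary screen of methionyl-tRNA synthetase; the read-out is not stated. Target: Methionyl-tRNA synthetase (putative), Leishmania donovani (UniProt E9BF75). The test concentration is not given. Values are per cent inhibition. Of about 68,000 compounds tested this way, about 24 (0.035%) reached 50% or more in at least one test.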
Mtb growth Cornell: 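Whole-cell assay for inhibitors of Mycobacterium tuberculosis growth, labelled Cornell in the record; the read-out is not stated. The concentration is filed as 10 mM, unlikely as a test dose, so the dose is not known. The record gives no direction; compounds strong in two other growth screens of this library score well above the rest, so higher reads as stronger inhibition. Of about 53,000 compounds tested this way, about 900 (1.7%) reached 50% or more in at least one test.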

structure | Mtb heat-shock | LdMetRS | Mtb growth Cornell
CCOc1cncc(N2CCOCC2)n1 | -0.5041% | 4.032% | -
O=c1ccc(-c2ccccc2F)nn1CN1CCCCCC1 | -5.09% | 20.33% | 13.67%
CC(C)(C)c1n[nH]c(C2CN(CC3CCC3)CCO2)n1 (centres undefined) | 11.04% | 12.98% | 15.35%
Cl.Nc1nc(C(=O)NCC2CCC3(CCNCC3)CO2)cs1 (centres undefined) | -16.29% | - | 20.52%
Nc1nc2c(c(N3CCC(CN4CCCC4=O)CC3)n1)CCNCC2 | 17.37% | 14.54% | -26.14%
CC(NC(=O)C1CC1)c1cc(O)nc(-c2cccnc2)n1 (centres undefined) | -16.83% | 2.188% | -28.46%
O=C(c1ccco1)N1CCOCC2(C1)CN(c1ccccc1)C(=O)CO2 (centres undefined) | -0.4421% | 18.83% | 25.82%
CC(C)CC(NCc1cccs1)c1ccccn1 (centres undefined) | 99.48% | 6.907% | 10.62%
CN(C)C(=O)N1CCN(CCCOc2ccccc2)[C@H]2CS(=O)(=O)C[C@H]21 | - | 11.73% | -
COc1ccc(CN2CCC3(CC2)CC(c2cccnc2)CO3)cc1.O=C(O)C(F)(F)F.O=C(O)C(F)(F)F (centres undefined) | -14.27% | - | -
O=C(NCCCN1CCOCC1)Nc1cnc2cc(Cl)ccc2c1O | -17.87% | 4.452% | 32.37%
FC(F)(F)c1cccc(-c2c[nH]c(C3CCCN3)n2)c1 (centres undefined) | - | 9.524% | -
CCN(CC)C(=O)c1nnsc1-c1ccc(Cl)cc1 | -12.37% | 8.924% | 29.48%
COc1cccc2c1OCCCN(Cc1ncccc1C(=O)O)C2 | -1.257% | -1.393% | -67.29%
O=C(O)C(F)(F)F.[H][C@@]12C[C@H](C(=O)NC3CC3)CN(CC3CCOCC3)[C@]1([H])CCO2 | -18.68% | - | -2.385%
COC(=O)c1ccc2ccn(CC3CCNC3)c(=O)c2c1 (centres undefined) | 2.464% | 12.32% | -15.61%
CC(=O)NCC(=O)N1CCC2(COCc3c(C)nc(N(C)C)nc32)C1 (centres undefined) | -1.452% | 5.96% | -
O=C(Cc1cccnc1)N1CCCC(n2cncn2)C1 (centres undefined) | 0.7103% | 16.11% | -17.88%
CC(=O)c1cc(CC(=O)NCc2cccc(F)c2F)cs1 | -6.508% | 12.09% | -
O=C1CO[C@@H]2CN(C(=O)CCc3ccccc3)C[C@H]2N1 | - | 11.11% | -
Cn1cc(CN2CCCC23CCN(C(=O)c2ccccc2)CC3)cn1 | - | 1.307% | -
Cn1ccc2c(ccn2CC(=O)Nc2ccc(Br)cc2)c1=O | 22.56% | -0.5634% | 16.54%
CN(C)CCCn1ccnc1C1CCN(c2cccc(C(=O)O)n2)CC1 | -33.11% | 3.008% | 20.67%
COc1cc(N2C[C@H]3CCN(CCN4CCCC4)C[C@H]3C2)ncn1 | - | 4.71% | -
CC(O)CN1CCN(C(=O)c2cc(Cl)cc3cccnc23)CC1 (centres undefined) | 11.33% | 17.71% | -
CCc1nc(CN2CCN(C(=O)c3csnn3)CC2)cs1 | -19.06% | 19.37% | -
[H][C@@]12CN(C3CCOCC3)C[C@]1([H])N(CCCc1ccc(F)cc1)C(=O)O2 | -2.309% | - | -32.17%
CCc1ccc(NC(=O)N2C[C@H]3C[C@H](C(=O)NC(C)C)[C@@H](C2)O3)cc1 | - | 3.297% | -
CC1CCN(CCNC(=O)C2CCN(C(=O)C(C)(C)C)CC2)CC1 | -14.53% | 7.609% | 15.3%
COc1cc(NC(=O)c2ccc(C)cc2C)c(C(=O)N(C)C)cc1OC | 5.558% | -2.122% | -8.047%
CN1CC(C(=O)NCCc2ccc3c(c2)OCCO3)CC1=O (centres undefined) | -24.54% | 11.76% | -2.294%
CC(=O)N1CC[C@@]2(O)CCCC[C@H]2[C@@H]1c1ccccc1 | - | -3.226% | -
c1cncc(-c2nccc(CN3CCC(N4CCCCC4)CC3)n2)c1 | - | 1.942% | -
CC(C)CN1C(=O)CO[C@@H]2CN(C(=O)C3CCOCC3)C[C@H]21 | - | -105.1% | -
CCC(CNC(=O)c1nc(=O)[nH][nH]1)Oc1cccc(F)c1 (centres undefined) | 11.73% | 13.71% | 34.4%
c1cncc(CN2CCCC3(COCCN(c4nccs4)C3)C2)c1 (centres undefined) | 3.711% | 15.92% | 9.585%
COc1cc(C)c2c(c1C)C[C@H]([C@H](C)C(=O)O)CC2 | - | 8.271% | -
CC(C)c1cc(NCC(O)c2ccc(F)cc2)n2nccc2n1 (centres undefined) | 13.68% | 18.48% | -
[H][C@]12CCN(C(=O)c3cnccn3)[C@@]1([H])CC[C@H](COCC)O2 | -26.97% | - | -
CC(O)CN(C)C(=O)Nc1ccn(-c2cccc(C(F)(F)F)c2)n1 (centres undefined) | -11.89% | 8.901% | 21.19%
COc1ccccc1OCC(=O)NCC(O)(c1cccs1)C1CC1 (centres undefined) | -4.902% | 16.38% | 23.16%
Cc1cc(C(=O)Nc2ccc(OC3CCOCC3)c(C)c2)[nH]n1 | -6.248% | 10.1% | 6.875%
Cc1nc(C2CCCN(C(=O)C(C)(C)n3cc(Cl)cn3)C2)no1 (centres undefined) | -15.67% | 15.28% | -
COc1cccc2ccc(N3CCC(O)(c4ccc(C)cn4)CC3)nc12 | -1.842% | 13% | 9.061%
Cn1ncc(N2CCOCC2)c(Cl)c1=O | 28.57% | 9.574% | 8.452%
[H][C@@]12CCN(c3ncccn3)C[C@]1(C(=O)NCc1cnc(C)cn1)CCO2 | 39.63% | - | -14.5%
Cc1cc(-c2cnn(CCNC(=O)CCn3cccn3)c2C2CC2)on1 | -6.266% | 15.25% | -25.43%
[H][C@@]12CS(=O)(=O)C[C@]1([H])N(C(=O)c1cc(C)on1)CCN2C(=O)CC(C)C | 2.022% | - | 13.18%
Cc1nc(CN2CCO[C@@H]3CN(Cc4cccs4)C[C@@H]3C2)cs1 | - | 13.07% | -
Cn1cncc1-c1nnc([C@H]2CCN(Cc3ccc(F)c(F)c3)C2)o1 | -23.6% | 6.767% | 8.885%
Cc1csc(C(C)(C)NCC(=O)N2CCCC(C(F)(F)F)C2)n1 (centres undefined) | -35.66% | 4.11% | -
Cc1nc2cc(C(=O)N(CCC#N)CC3CCCO3)ccc2[nH]1 (centres undefined) | 2.998% | 10.83% | 13.87%
CCCc1nc(CN2CCOC(Cn3cncn3)C2)no1 (centres undefined) | -19.64% | 2.778% | -
N#Cc1ccc(C(=O)O)nc1/C=C/c1cccc(Cl)c1 | -22.72% | -0.7752% | -13.81%
CS(=O)(=O)NC[C@@H]1OC[C@H]2CN(C(=O)c3cnccn3)CC[C@H]21 | - | 13.33% | -
O=C(O)CCc1cc2n(n1)CCN(Cc1cnc(N3CCCC3)nc1)C2 | -8.434% | 12.04% | 13.31%
CN1C(=O)CC[C@@H]2[C@H]1CCN2S(=O)(=O)c1cccs1 | - | 6.111% | -
CSc1ccc(CN(CCO)C(=O)CCc2cccc(F)c2)cc1 | -11.04% | 12.72% | 12.17%
NC(=O)c1cnc(NC2CC2)nc1CCNC(=O)CC1CCCC1 | 20.42% | 11.55% | -16.52%
c1nc2onc(C3CC3)c2cc1-c1nnc(C2CC2)o1 | -2.096% | 12.63% | 13.1%
N#Cc1c(N2CCN(CC3CCOC3)CC2)nc2ccccn12 (centres undefined) | -27.48% | 7.317% | 1.59%
O=C(CSC1CCc2ccccc2NC1=O)NCc1ccccc1 (centres undefined) | 1.012% | 19.27% | 5.539%
Cc1nnc(N2CCCC(C(=O)c3cccc(Cl)c3)C2)o1 (centres undefined) | -12.13% | 19.78% | -
O=C(O)c1ccc(CCNC(=O)C2(O)Cc3ccccc3C2)cc1 | 0.9131% | 8.824% | -
NC(=O)c1cnn2c1NCC(CNCCOc1ccccc1)C2 (centres undefined) | -24.69% | 13.11% | -
Cc1ccc(C(=O)NCCCNS(C)(=O)=O)c(=O)[nH]1 | -4.419% | 8.571% | 13.95%
Cc1cc(NC(=O)Cn2nc(C)c(C#N)c2N)ccc1Br | -21.12% | 9.408% | 6.328%
CN(C)c1ncc2c(n1)C1(CCN(CC3CC3)C1)COC2.O=C(O)C(F)(F)F (centres undefined) | -43.52% | - | 47.13%
Cn1cnnc1SCc1cc2c(cc1Cl)OCO2 | 0.6229% | 13.87% | 23.01%
Cc1nn(C)cc1S(=O)(=O)N[C@@H]1CCC[C@@H](N2CCCC2)[C@@H]1O | 9.734% | 2.83% | 19.92%
O=C(c1cccnc1)N1CCC2(CCN(C(=O)c3ccco3)CC2)C1 | - | 11.37% | -

For reference, 9 entries once more:

| structure | Mtb heat-shock | LdMetRS | Mtb growth Cornell |
|---|---|---|---|
| `CN(C)c1ncc2c(n1)C1(CCN(CC3CC3)C1)COC2.O=C(O)C(F)(F)F` (centres undefined) | -43.52% | - | 47.13% |
| `CC(=O)N1CC[C@@]2(O)CCCC[C@H]2[C@@H]1c1ccccc1` | - | -3.226% | - |
| `CCc1ccc(NC(=O)N2C[C@H]3C[C@H](C(=O)NC(C)C)[C@@H](C2)O3)cc1` | - | 3.297% | - |
| `c1nc2onc(C3CC3)c2cc1-c1nnc(C2CC2)o1` | -2.096% | 12.63% | 13.1% |
| `CN1C(=O)CC[C@@H]2[C@H]1CCN2S(=O)(=O)c1cccs1` | - | 6.111% | - |
| `[H][C@]12CCN(C(=O)c3cnccn3)[C@@]1([H])CC[C@H](COCC)O2` | -26.97% | - | - |
| `N#Cc1c(N2CCN(CC3CCOC3)CC2)nc2ccccn12` (centres undefined) | -27.48% | 7.317% | 1.59% |
| `CN1CC(C(=O)NCCc2ccc3c(c2)OCCO3)CC1=O` (centres undefined) | -24.54% | 11.76% | -2.294% |
| `O=C1CO[C@@H]2CN(C(=O)CCc3ccccc3)C[C@H]2N1` | - | 11.11% | - |

Data taken from ChEMBL document CHEMBL3988442, “University of Dundee, Small-Polar-MMV Screening Library” (2021).